# Data published in the supplement of paper PMC8728848.
# This is one part of the list.
# B1: AT1G80310(18) (Arabidopsis thaliana), Q0WP36 (protein)
# chain: METTTTPLLPGDRSRCGWLRRRLRLKNPLSSELSGAVGDLGTFIPIVLTLTLVSNLDLSTTLIFTGFYNIATGLLFDIPMPVQPMKSIAAVAVSESPHLTPSQIAAAGASTAATLLLLGATGAMSFLYNIIPLPVVRGVQLSQGLQFAFTAIKYVRFNYDTATLKPSSSPRIWLGLDGLILALAALLFIILSTGSGNDREAEDGDLAETSSNESQSRRRRLRLLSSIPSALIVFALGLVLCFIRDPSIFKDLKFGPSKFHILRISWDDWKIGFLRAAIPQIPLSVLNSVIAVCKLSNDLFDKELSATTVSISVGVMNLIGCWFGAMPVCHGAGGLAGQYRFGARSGLSVIFLGIGKLIVGLVFGNSFVRILSQFPIGILGVLLLFAGIELAMASKDMNSKEDSFIMLVCAAVSMTGSSAALGFGCGVVLYLLLKLRTLDCSSVTLFSRSSDESQVDSEAAPRDV
# Legend:
# Test in all cases: glycan array binding signal (z-score within array); higher = stronger binding
# Settings in all cases: glycan notation: IUPAC condensed, linker removed
# [1] = molecular target: Neu5Ac(a2-6)GlcNAc(b1-4)GlcNAc(b1-4)GlcNAc
# In short: (§1)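 Arrays were curated from the Consortium for Functional Glycomics database, 3228 in total, and kept only where the protein sequence was available. Binding is expressed as a within-array Z-score. This score was averaged across arrays of the same protein sequence at different concentrations or buffers and across linkers, and negative values can be read as non-binding.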
# [2] = molecular target: Neu5Ac(a2-8)Neu5Ac
# In short: as §1
# [3] = molecular target: Neu5Ac(a2-8)Neu5Ac(a2-3)Gal(b1-3)GalNAc(b1-4)[Neu5Ac(a2-3)]Gal(b1-4)Glc
# In short: as §1
# [4] = molecular target: Neu5Ac(a2-8)Neu5Ac(a2-3)Gal(b1-3)GalNAc(b1-4)[Neu5Ac(a2-8)Neu5Ac(a2-3)]Gal(b1-4)Glc
# In short: as §1
# [5] = molecular target: Neu5Ac(a2-8)Neu5Ac(a2-3)Gal(b1-4)Glc
# In short: as §1
# [6] = molecular target: Neu5Ac(a2-8)Neu5Ac(a2-3)Gal(b1-4)GlcNAc
# In short: as §1
# [7] = molecular target: Neu5Ac(a2-8)Neu5Ac(a2-3)[Gal(b1-3)GalNAc(b1-4)]Gal(b1-4)Glc
# In short: as §1
# [8] = molecular target: Neu5Ac(a2-8)Neu5Ac(a2-3)[GalNAc(b1-4)]Gal(b1-4)Glc
# In short: as §1
# [9] = molecular target: Neu5Ac(a2-8)Neu5Ac(a2-8)Neu5Ac
# In short: as §1
# [10] = molecular target: Neu5Ac(a2-8)Neu5Ac(a2-8)Neu5Ac(a2-3)Gal(b1-4)Glc
# In short: as §1
# [11] = molecular target: Neu5Ac(a2-8)Neu5Ac(a2-8)Neu5Ac(a2-3)[Gal(b1-3)GalNAc(b1-4)]Gal(b1-4)Glc
# In short: as §1
# [12] = molecular target: Neu5Ac(a2-8)Neu5Ac(a2-8)Neu5Ac(a2-3)[GalNAc(b1-4)]Gal(b1-4)Glc
# In short: as §1
# [13] = molecular target: Neu5Ac(a2-8)Neu5Ac(a2-8)Neu5Ac(a2-8)Neu5Ac(a2-3)[GalNAc(b1-4)]Gal(b1-4)Glc
# In short: as §1
# [14] = molecular target: Neu5Ac(a2-8)Neu5Gc(a2-3)Gal(b1-4)GlcNAc
# In short: as §1
# [15] = molecular target: Neu5Ac(b2-6)Gal(b1-4)GlcNAc
# In short: as §1
# [16] = molecular target: Neu5Ac(b2-6)GalNAc
# In short: as §1
# [17] = molecular target: Neu5Ac9Ac(a2-3)Gal(b1-3)GlcNAc
# In short: as §1
# [18] = molecular target: Neu5Ac9Ac(a2-3)Gal(b1-4)GlcNAc
# In short: as §1
# [19] = molecular target: Neu5Ac9Ac(a2-6)Gal(b1-4)GlcNAc
# In short: as §1
# [20] = molecular target: Neu5Gc(a2-3)Gal(b1-3)GlcNAc
# In short: as §1
# [21] = molecular target: Neu5Gc(a2-3)Gal(b1-3)[Fuc(a1-4)]GlcNAc
# In short: as §1
# [22] = molecular target: Neu5Gc(a2-3)Gal(b1-4)Glc
# In short: as §1
# [23] = molecular target: Neu5Gc(a2-3)Gal(b1-4)GlcNAc
# In short: as §1
# [24] = molecular target: Neu5Gc(a2-3)Gal(b1-4)GlcNAc(b1-3)Gal(b1-4)GlcNAc(b1-2)Man(a1-3)[Neu5Gc(a2-3)Gal(b1-4)GlcNAc(b1-3)Gal(b1-4)GlcNAc(b1-2)Man(a1-6)]Man(b1-4)GlcNAc(b1-4)GlcNAc
# In short: as §1
# [25] = molecular target: Neu5Gc(a2-3)Gal(b1-4)[Fuc(a1-3)]GlcNAc
# In short: as §1
# [26] = molecular target: Neu5Gc(a2-6)Gal(b1-4)GlcNAc
# In short: as §1
# [27] = molecular target: Neu5Gc(a2-6)GalNAc
# In short: as §1
# [28] = molecular target: Neu5Gc(a2-8)Neu5Ac(a2-3)Gal(b1-4)GlcNAc
# In short: as §1
# [29] = molecular target: Neu5Gc(a2-8)Neu5Gc(a2-3)Gal(b1-4)GlcNAc
# In short: as §1
# [30] = molecular target: Neu5Gc(a2-8)Neu5Gc(a2-3)Gal(b1-4)GlcNAc(b1-3)Gal(b1-4)GlcNAc
# In short: as §1
# [31] = molecular target: Neu5Gc(a2-8)Neu5Gc(a2-6)Gal(b1-4)GlcNAc
# In short: as §1
# [32] = molecular target: Neu5Gc(b2-6)Gal(b1-4)GlcNAc
# In short: as §1
binder,measurement,setting,value
B1,glycan array binding signal (z-score),[1],-0.651
same,glycan array binding signal (z-score),[2],-0.857
same,glycan array binding signal (z-score),[3],-0.86
same,glycan array binding signal (z-score),[4],0.359
same,glycan array binding signal (z-score),[5],-0.678
same,glycan array binding signal (z-score),[6],-0.661
same,glycan array binding signal (z-score),[7],-0.952
same,glycan array binding signal (z-score),[8],-0.61
same,glycan array binding signal (z-score),[9],-0.762
same,glycan array binding signal (z-score),[10],-0.862
same,glycan array binding signal (z-score),[11],-0.653
same,glycan array binding signal (z-score),[12],-0.581
same,glycan array binding signal (z-score),[13],-0.09
same,glycan array binding signal (z-score),[14],-0.745
same,glycan array binding signal (z-score),[15],0.021
same,glycan array binding signal (z-score),[16],-1.09
same,glycan array binding signal (z-score),[17],-0.052
same,glycan array binding signal (z-score),[18],-0.269
same,glycan array binding signal (z-score),[19],-0.518
same,glycan array binding signal (z-score),[20],-0.667
same,glycan array binding signal (z-score),[21],-0.584
same,glycan array binding signal (z-score),[22],-0.211
same,glycan array binding signal (z-score),[23],-0.539
same,glycan array binding signal (z-score),[24],-0.466
same,glycan array binding signal (z-score),[25],-0.095
same,glycan array binding signal (z-score),[26],-0.536
same,glycan array binding signal (z-score),[27],0.551
same,glycan array binding signal (z-score),[28],-0.405
same,glycan array binding signal (z-score),[29],-0.578
same,glycan array binding signal (z-score),[30],0.547
same,glycan array binding signal (z-score),[31],0.156
same,glycan array binding signal (z-score),[32],1.44

# Nine entries from above, bar-delimited.
binder | measurement | setting | value
B1 | glycan array binding signal (z-score) | [13] | -0.09
same | glycan array binding signal (z-score) | [14] | -0.745
same | glycan array binding signal (z-score) | [15] | 0.021
same | glycan array binding signal (z-score) | [16] | -1.09
same | glycan array binding signal (z-score) | [17] | -0.052
same | glycan array binding signal (z-score) | [18] | -0.269
same | glycan array binding signal (z-score) | [19] | -0.518
same | glycan array binding signal (z-score) | [20] | -0.667
same | glycan array binding signal (z-score) | [21] | -0.584
